Measurements: PubChem BioAssay AID504834 (National Center for Advancing Translational Sciences (NCATS), 2011)
The whole screen tested about 320,000 compounds, of which about 22,000 (6.9%) were called active. The inconclusive results got no clear call from the source; some entries with a clear call stand among them for comparison. Calls come from the whole dose curve; as a rule, active = well fitted inhibition curve with a large enough effect; inconclusive = small, poorly fitted or top-dose-only effect, or another doubt; inactive = no such curve, though single readings can be large or run the other way. A potency beside an inconclusive call is a rough fit, not a confirmed value.

Test: Primary qHTS for delayed death inhibitors of the malarial parasite plastid, 96 hour incubation
Details: P. falciparum luciferase reporter growth; series mostly up to 28.7 µM
In short: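 Compounds incubated with erythrocytes infected by luciferase-expressing P. falciparum (2% hematocrit, 0.05% parasitemia final) for 96 hours, 37 C in 5% CO2. Growth inhibition scored as decreased luciferase luminescence.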
Potency is the fitted concentration of half-maximal effect.

Q: With `N#Cc1cc2[nH]c3ccccc3c2[n+](-c2ccc([N+](=O)[O-])cc2)c1N` as the compound, how does the Potency read?
A: Its Potency is inconclusive: 13.1 µM [inhibitor, single point].

Q: With `COc1cc(Cl)c([C@@H]2C[C@H]3CN(c4ccccc4)C(=O)[C@]34CCCN24)cc1OC` as the compound, how does the Potency read?
A: Its Potency is inconclusive: 1.31 µM [inhibitor, full curve].

Q: For `O=C(Nc1ccc2nc3n(c(=O)c2c1)CCCCC3)C(=O)N1CCN(c2ccc(F)cc2)CC1`, which Potency is on record?
A: The Potency was inconclusive: 10.4 µM [inhibitor, single point].

Q: With `c1ccc2c(CN3CCCCC3)c[nH]c2c1` as the compound, how does the Potency read?
A: Its Potency is “inactive”.

Q: Which Potency does the source give for `COc1ccccc1NC(=O)Nc1nc(C(C)(C)C)cs1` here?
A: The Potency was inconclusive: 1.04 µM [inhibitor, full curve, poor fit].

Q: For `CCCN1CCN(C(=O)CN2C(=O)CC(C)(C)S(=O)(=O)c3ccccc32)CC1`, which Potency is on record?
A: Its Potency is active: 14.7 µM.

Q: Which Potency does the source give for `O=C(Nc1ccccc1OCc1ccccc1)c1ccccc1Br` here?
A: The Potency was inconclusive: 14.7 µM [inhibitor, partial curve, poor fit].

Q: With `Cc1cccc(NC(=S)N(CCN(C)C)C(C)c2ccccn2)c1` (stereo not drawn) as the compound, how does the Potency read?
A: The Potency was “inactive”.

Q: For `Cc1ccccc1NC(=S)N(Cc1ccccn1)Cc1ccccc1Cl`, which Potency is on record?
A: Its Potency is inconclusive: 13.1 µM [inhibitor, single point].

Q: Which Potency does the source give for `CCOC(=O)c1ccccc1NS(=O)(=O)c1c(C)nc2sccn2c1=O` here?
A: Its Potency is active: 14.7 µM.

Q: For `O=C(Nc1ccc(F)cc1F)c1cccc(C(=O)Nc2ccc(F)cc2F)n1`, which Potency is on record?
A: The Potency was inconclusive: 7.38 µM [inhibitor, partial curve, poor fit].

Q: For `O=C1CC(N2CCN(c3ccc(Cl)cc3)CC2)C(=O)N1c1ccc(F)cc1` (stereo not drawn), which Potency is on record?
A: Its Potency is inconclusive: 0.928 µM [inhibitor, full curve].

Q: Which Potency does the source give for `COc1ccc(S(=O)(=O)NCCc2csc(-c3cccnc3)n2)cc1` here?
A: The Potency was inconclusive: 5.22 µM [inhibitor, partial curve, poor fit].

Q: With `Cc1ccsc1C(=O)NCCC(c1ccccc1)c1ccccc1` as the compound, how does the Potency read?
A: Its Potency is inconclusive: 3.29 µM [inhibitor, full curve, poor fit].

Q: Which Potency does the source give for `COC(=O)c1scc(C)c1NC(=O)C1CCCCC1` here?
A: Its Potency is “inactive”.

Q: For `NS(=O)(=O)c1cc2c(cc1Cl)N[C@@H](CC1CCCC1)NS2(=O)=O`, which Potency is on record?
A: The Potency was “inactive”.

Q: With `O=C(Nc1cccc(S(=O)(=O)NCc2ccco2)c1)c1cc(-c2ccccc2)nc2ccccc12` as the compound, how does the Potency read?
A: Its Potency is inconclusive: 9.28 µM [inhibitor, single point].

Q: With `CCCc1cc(=O)oc2c(C)c(OCC(=O)N3C[C@H]4C[C@@H](C3)c3cccc(=O)n3C4)ccc12` as the compound, how does the Potency read?
A: Its Potency is inconclusive: 8.28 µM [inhibitor, single point].

Q: Which Potency does the source give for `CCOC(=O)N1CCC(NC(=O)C(NS(=O)(=O)c2cccc3nsnc23)c2ccccc2)CC1` (stereo not drawn) here?
A: The Potency was inconclusive: 0.738 µM [inhibitor, partial curve, poor fit].

Q: Which Potency does the source give for `COc1ccc(C2CC(c3cccs3)=NN2C(=O)CCC(=O)O)cc1OC` (stereo not drawn) here?
A: The Potency was active: 2.62 µM.

Q: For `O=C(CSc1ccc2nnc(-c3ccccn3)n2n1)Nc1nccs1`, which Potency is on record?
A: Its Potency is inconclusive: 10.4 µM [inhibitor, single point].

Q: For `CCOC(=O)c1oc2c(c1C)C(=O)CCC2`, which Potency is on record?
A: The Potency was “inactive”.

Q: Which Potency does the source give for `Cc1ccc(-n2c3c(cc(C(=O)NCc4ccco4)c2=O)C(=O)CCC3)cc1` here?
A: The Potency was “inactive”.

Q: With `COC(=O)C1CSC(C(=O)OC)N1C(=O)CN1CCN(c2ccccc2)CC1` (stereo not drawn) as the compound, how does the Potency read?
A: The Potency was inconclusive: 0.117 µM [inhibitor, full curve, poor fit].

Q: With `CCc1ccc2oc(C(=O)Nc3ccc(S(N)(=O)=O)cc3)c(C)c2c1` as the compound, how does the Potency read?
A: Its Potency is “inactive”.

Q: For `CCCCN(CC)CCNC(=O)c1ccc2c(Cl)c3c(nc2c1)CCC3`, which Potency is on record?
A: Its Potency is inconclusive: 8.28 µM [inhibitor, partial curve, poor fit].

Q: Which Potency does the source give for `Cc1ccc(C(=O)Nc2cc(C(F)(F)F)ccc2-n2cncn2)o1` here?
A: The Potency was inconclusive: 18.5 µM [inhibitor, single point].

Q: For `Cc1ccc(C(C)C)c(OCC(O)CN(C)Cc2ccccc2)c1` (stereo not drawn), which Potency is on record?
A: Its Potency is active: 2.08 µM.

Q: Which Potency does the source give for `Cc1ccc(SCc2ccc(C(=O)Nc3cccc([N+](=O)[O-])c3)cc2)cc1` here?
A: Its Potency is “inactive”.

Q: For `Oc1ccc2oc3c(c2c1C=NCc1ccncc1)CCCC3`, which Potency is on record?
A: Its Potency is inconclusive: 18.5 µM [inhibitor, single point].

Q: With `CC(=O)Nc1ccc(N(C(=O)c2ccco2)C(C(=O)NC2CCCC2)c2ccc(N3CCOCC3)cc2)cc1` (stereo not drawn) as the compound, how does the Potency read?
A: Its Potency is “inactive”.

Q: With `COc1cc(CCC(=O)N2CCN(c3ccc([N+](=O)[O-])cc3)CC2)cc(OC)c1OC` as the compound, how does the Potency read?
A: Its Potency is inconclusive: 4.15 µM [inhibitor, full curve].

Q: For `O=[N+]([O-])c1ccccc1S(=O)(=O)n1cnc2ccccc21`, which Potency is on record?
A: The Potency was “inactive”.

Q: With `O=C(NCCNc1nccc(C(F)(F)F)n1)c1cccs1` as the compound, how does the Potency read?
A: The Potency was inconclusive: 18.5 µM [inhibitor, single point].

Q: Which Potency does the source give for `CN(CC(=O)NC(=O)NC1CCCCC1)CC(=O)Nc1ccc(Cl)cc1` here?
A: The Potency was active: 4.15 µM.

Q: For `COc1cccc(C2C(C#N)=C(C)NC3=C2C(=O)CC(C)(C)C3)c1` (stereo not drawn), which Potency is on record?
A: Its Potency is inconclusive: 5.22 µM [inhibitor, partial curve].

Q: With `Cc1onc(-c2ccccc2Cl)c1C(=O)OCC(=O)Nc1ccc2c(c1)OCO2` as the compound, how does the Potency read?
A: Its Potency is inconclusive: 13.1 µM [inhibitor, single point].

Q: For `COc1cccc(CC(=O)Nc2cc(C(F)(F)F)ccc2N2CCCC2)c1`, which Potency is on record?
A: Its Potency is active: 13.1 µM.

Q: Which Potency does the source give for `O=S(=O)(c1cccc(-c2cn3cccnc3n2)c1)N1CCCCCC1` here?
A: Its Potency is inconclusive: 10.4 µM [inhibitor, partial curve, poor fit].

Q: Which Potency does the source give for `CN(C)N1C(N)=C(C#N)C(c2ccc(Br)cc2)C2=C1CCCC2=O` (stereo not drawn) here?
A: The Potency was active: 2.94 µM.

Q: Which Potency does the source give for `CCOC(=O)n1cc(-c2cnc(CNC(=O)C(C)(c3ccccc3)c3ccccc3)o2)c2ccccc21` here?
A: The Potency was inconclusive: 18.5 µM [inhibitor, single point].

Q: With `Cc1ccn2c(Nc3ccc4c(c3)OCO4)c(-c3ccccn3)nc2c1` as the compound, how does the Potency read?
A: Its Potency is inconclusive: 11.7 µM [inhibitor, single point].

Q: Which Potency does the source give for `CC(C)n1nc(C(=O)N2CCN(S(=O)(=O)c3cccs3)CC2)c2ccccc2c1=O` here?
A: Its Potency is “inactive”.

Q: Which Potency does the source give for `COc1ccc(N2CCN(CC(=O)Nc3ccccc3SC)CC2)cc1` here?
A: The Potency was inconclusive: 2.94 µM [inhibitor, single point].

Q: Which Potency does the source give for `Cc1cccc(C(=O)NNC(=O)c2ccco2)c1` here?
A: The Potency was “inactive”.

Q: With `Cc1ccsc1C1Nc2ccc3ncccc3c2C2=C1C(=O)CC(C)(C)C2` (stereo not drawn) as the compound, how does the Potency read?
A: Its Potency is active: 1.17 µM.

Q: For `O=C(Nc1cccc(C(=O)O)c1)/C(=C\c1ccc2c(c1)OCO2)NC(=O)c1ccccc1Cl`, which Potency is on record?
A: The Potency was inconclusive: 18.5 µM [inhibitor, single point].

Q: For `O=C(O)CCCCCCCCCC(=O)c1cccs1`, which Potency is on record?
A: Its Potency is inconclusive: 18.5 µM [inhibitor, single point].

Q: With `CCCNCc1cc(OCC)c(OCC(=O)Nc2ccccc2)cc1Br` as the compound, how does the Potency read?
A: The Potency was inconclusive: 13.1 µM [inhibitor, partial curve, poor fit].

Q: For `Cc1ccc(NC(=O)C(C)OC(=O)/C=C/c2ccccc2)cc1S(=O)(=O)N1CCOCC1` (stereo not drawn), which Potency is on record?
A: The Potency was inconclusive: 20.8 µM [inhibitor, single point].

Q: Which Potency does the source give for `CCOC(=O)c1c(NC(=O)CN2C(=O)NC3(CCCCC3C)C2=O)sc(C(=O)N(C)C)c1C` (stereo not drawn) here?
A: The Potency was inconclusive: 10.4 µM [inhibitor, single point].

Q: With `O=C(/C=C/c1ccccc1[N+](=O)[O-])Nc1ccccc1` as the compound, how does the Potency read?
A: Its Potency is “inactive”.

Q: With `COc1cccc(NC(=O)Nc2ccc3c(c2)N(C)C(=O)CS3)c1` as the compound, how does the Potency read?
A: The Potency was “inactive”.

Q: Which Potency does the source give for `O=C(O)C(Cc1cc(I)c(O)c(I)c1)c1ccccc1` (stereo not drawn) here?
A: The Potency was inconclusive: 3.79 µM [inhibitor, partial curve, poor fit].

Q: Which Potency does the source give for `COc1cc(C(=O)Nc2ccccc2-c2nnn(CC(N)=O)n2)cc(OC)c1OC` here?
A: The Potency was inconclusive: 13.1 µM [inhibitor, single point].

Q: For `O=C(Nc1ccc(N2CCOCC2)c(Cl)c1)c1cccnc1Cl`, which Potency is on record?
A: The Potency was inconclusive: 5.22 µM [inhibitor, partial curve, poor fit].

Q: For `CCn1cc(-c2cc(C(F)(F)F)n3nc(C(=O)O)cc3n2)c(C)n1`, which Potency is on record?
A: The Potency was inconclusive: 3.7 µM [inhibitor, partial curve, poor fit].

Q: With `COc1ccccc1CNS(=O)(=O)c1ccc(-n2cccn2)cc1` as the compound, how does the Potency read?
A: Its Potency is inconclusive: 14.7 µM [inhibitor, single point].

Q: Which Potency does the source give for `O=C(NCc1ccco1)C1CCN(S(=O)(=O)c2ccc(-n3cnnn3)cc2)CC1` here?
A: Its Potency is inconclusive: 0.0029 µM [inhibitor, full curve, poor fit].

Q: Which Potency does the source give for `CS(=O)(=O)N1CCC(C(=O)Nc2cc(Cl)c(Cl)cc2Cl)CC1` here?
A: The Potency was active: 2.08 µM.

Q: With `COc1ccc2[nH]c(=O)c(CN(Cc3cccnc3)Cc3nnnn3CC3CCCO3)cc2c1` (stereo not drawn) as the compound, how does the Potency read?
A: The Potency was inconclusive: 9.28 µM [inhibitor, partial curve, poor fit].

Q: For `O=C(CCC(=O)c1ccc(F)cc1)Nc1ccccc1Cl`, which Potency is on record?
A: The Potency was inconclusive: 7.38 µM [inhibitor, partial curve, poor fit].

Q: For `CCN(CC)CCN1C(=O)c2oc3ccccc3c(=O)c2C1c1ccc(C)cc1` (stereo not drawn), which Potency is on record?
A: The Potency was active: 2.62 µM.

Q: For `O=C(Cc1c(F)cccc1Cl)Nc1ccc(S(=O)(=O)NCC2CCCO2)cc1` (stereo not drawn), which Potency is on record?
A: Its Potency is “inactive”.

Q: With `Cn1cc([N+](=O)[O-])c(C(=O)N/N=C/c2ccncc2)n1` as the compound, how does the Potency read?
A: The Potency was “inactive”.

Q: Which Potency does the source give for `COC(=O)[C@@]12CCCN1[C@H](c1ccc(SC3CCCCC3)cc1)[C@H]1C(=O)N(C)C(=O)[C@H]12` here?
A: Its Potency is inconclusive: 7.38 µM [inhibitor, partial curve, poor fit].

Q: With `CC(C)(C)CC(=O)N[C@@H](Cc1ccccc1)c1nc2ccccc2[nH]1` as the compound, how does the Potency read?
A: The Potency was inconclusive: 18.5 µM [inhibitor, single point].

Q: Which Potency does the source give for `Cc1ccc(C)c(NC(=O)c2cc(-c3cc(C)c(C)cc3O)n[nH]2)c1` here?
A: Its Potency is inconclusive: 9.28 µM [inhibitor, partial curve, poor fit].
